Laboratory results: US20060280894A1, “Metal complexes as light-absorbing compounds in the information layer of optical data carriers” (priority 2003, published 2006)

Test: Dynamic writing test of a spin-coated DVD-R type disk
Settings: 11 T pits, V=3.5 m/s, Pwrite=10 mW, diode laser λ=656 nm, NA=0.6

SMILES	signal/noise ratio C/N [dB]
CCN(CC)c1ccc(N=Nc2nc(-c3ccccc3)ns2)c([N-]S(=O)(=O)N(C)C)c1.CCN(CC)c1ccc(N=Nc2nc(-c3ccccc3)ns2)c([N-]S(=O)(=O)N(C)C)c1.[Ni+2] [Example 11]	48
CCN(CC)c1ccc(N=Nc2nc(C#N)c(C#N)n2C)c([N-]S(=O)(=O)N(C)C)c1.CCN(CC)c1ccc(N=Nc2nc(C#N)c(C#N)n2C)c([N-]S(=O)(=O)N(C)C)c1.[Ni+2] [Example 15]	53
